According to the supplement of paper PMC10849652:
This is one part of the list.

Amino acid sequences for entries named in this document (tags omitted). A change or cut given only in a name is not applied to a line headed by its entry.
UniProt O75717: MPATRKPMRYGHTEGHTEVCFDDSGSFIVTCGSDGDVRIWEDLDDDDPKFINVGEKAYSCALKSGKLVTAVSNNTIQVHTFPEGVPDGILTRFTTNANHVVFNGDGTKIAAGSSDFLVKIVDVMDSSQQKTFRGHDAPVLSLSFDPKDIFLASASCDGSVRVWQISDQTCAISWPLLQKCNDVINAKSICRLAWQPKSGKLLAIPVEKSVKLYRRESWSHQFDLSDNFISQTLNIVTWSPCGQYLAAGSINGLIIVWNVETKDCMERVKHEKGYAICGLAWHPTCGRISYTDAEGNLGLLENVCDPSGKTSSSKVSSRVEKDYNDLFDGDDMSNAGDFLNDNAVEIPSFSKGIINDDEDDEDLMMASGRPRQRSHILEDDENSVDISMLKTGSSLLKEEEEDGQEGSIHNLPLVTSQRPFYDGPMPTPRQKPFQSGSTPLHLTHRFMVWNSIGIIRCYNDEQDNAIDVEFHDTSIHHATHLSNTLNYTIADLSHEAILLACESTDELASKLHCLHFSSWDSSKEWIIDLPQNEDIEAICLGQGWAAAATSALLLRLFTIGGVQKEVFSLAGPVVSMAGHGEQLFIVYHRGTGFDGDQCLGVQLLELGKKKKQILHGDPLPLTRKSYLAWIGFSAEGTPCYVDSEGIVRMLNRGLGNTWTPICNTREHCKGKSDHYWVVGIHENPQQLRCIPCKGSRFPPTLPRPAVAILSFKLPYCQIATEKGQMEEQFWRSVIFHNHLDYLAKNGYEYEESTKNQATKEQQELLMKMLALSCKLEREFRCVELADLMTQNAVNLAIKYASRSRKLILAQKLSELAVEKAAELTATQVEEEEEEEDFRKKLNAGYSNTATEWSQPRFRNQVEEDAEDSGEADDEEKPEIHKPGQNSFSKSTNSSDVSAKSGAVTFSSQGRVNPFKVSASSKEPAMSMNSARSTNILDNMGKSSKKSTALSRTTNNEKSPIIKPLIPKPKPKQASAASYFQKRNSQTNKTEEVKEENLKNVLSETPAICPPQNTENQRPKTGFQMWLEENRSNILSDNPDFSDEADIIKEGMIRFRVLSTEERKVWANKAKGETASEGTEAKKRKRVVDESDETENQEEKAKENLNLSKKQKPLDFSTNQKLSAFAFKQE
UniProt Q9BV38: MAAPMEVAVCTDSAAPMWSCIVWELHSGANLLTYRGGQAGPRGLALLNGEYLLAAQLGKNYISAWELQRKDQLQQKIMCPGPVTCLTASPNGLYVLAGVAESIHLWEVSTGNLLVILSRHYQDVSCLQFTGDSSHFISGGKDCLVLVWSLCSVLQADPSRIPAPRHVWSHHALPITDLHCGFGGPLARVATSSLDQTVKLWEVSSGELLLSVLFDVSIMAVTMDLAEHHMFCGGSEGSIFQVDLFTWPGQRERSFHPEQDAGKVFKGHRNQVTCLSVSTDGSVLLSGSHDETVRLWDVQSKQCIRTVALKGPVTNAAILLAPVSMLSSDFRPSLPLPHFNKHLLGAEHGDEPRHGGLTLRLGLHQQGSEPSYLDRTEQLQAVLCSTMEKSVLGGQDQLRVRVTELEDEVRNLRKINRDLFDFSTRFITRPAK
UniProt Q5VIR6: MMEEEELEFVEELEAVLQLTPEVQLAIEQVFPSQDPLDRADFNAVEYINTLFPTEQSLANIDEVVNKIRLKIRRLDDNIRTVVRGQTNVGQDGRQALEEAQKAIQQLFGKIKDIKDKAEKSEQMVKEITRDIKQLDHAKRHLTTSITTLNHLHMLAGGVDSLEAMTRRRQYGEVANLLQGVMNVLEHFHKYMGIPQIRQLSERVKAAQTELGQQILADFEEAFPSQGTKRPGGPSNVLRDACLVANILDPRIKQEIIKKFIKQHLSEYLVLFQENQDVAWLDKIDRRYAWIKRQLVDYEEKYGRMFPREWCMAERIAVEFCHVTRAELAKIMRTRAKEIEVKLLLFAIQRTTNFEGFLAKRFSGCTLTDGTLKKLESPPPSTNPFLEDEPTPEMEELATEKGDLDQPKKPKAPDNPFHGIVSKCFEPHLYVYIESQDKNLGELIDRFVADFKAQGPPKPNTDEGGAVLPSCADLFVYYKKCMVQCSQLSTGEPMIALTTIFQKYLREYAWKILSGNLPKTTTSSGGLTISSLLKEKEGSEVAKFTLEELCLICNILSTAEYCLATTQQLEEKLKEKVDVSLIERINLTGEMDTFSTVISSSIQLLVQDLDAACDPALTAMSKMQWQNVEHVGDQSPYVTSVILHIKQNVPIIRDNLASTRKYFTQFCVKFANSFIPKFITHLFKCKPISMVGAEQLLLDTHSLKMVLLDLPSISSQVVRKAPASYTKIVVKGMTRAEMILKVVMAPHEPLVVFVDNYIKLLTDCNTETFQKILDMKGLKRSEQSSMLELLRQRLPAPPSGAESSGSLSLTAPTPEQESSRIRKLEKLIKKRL
UniProt Q8IV63: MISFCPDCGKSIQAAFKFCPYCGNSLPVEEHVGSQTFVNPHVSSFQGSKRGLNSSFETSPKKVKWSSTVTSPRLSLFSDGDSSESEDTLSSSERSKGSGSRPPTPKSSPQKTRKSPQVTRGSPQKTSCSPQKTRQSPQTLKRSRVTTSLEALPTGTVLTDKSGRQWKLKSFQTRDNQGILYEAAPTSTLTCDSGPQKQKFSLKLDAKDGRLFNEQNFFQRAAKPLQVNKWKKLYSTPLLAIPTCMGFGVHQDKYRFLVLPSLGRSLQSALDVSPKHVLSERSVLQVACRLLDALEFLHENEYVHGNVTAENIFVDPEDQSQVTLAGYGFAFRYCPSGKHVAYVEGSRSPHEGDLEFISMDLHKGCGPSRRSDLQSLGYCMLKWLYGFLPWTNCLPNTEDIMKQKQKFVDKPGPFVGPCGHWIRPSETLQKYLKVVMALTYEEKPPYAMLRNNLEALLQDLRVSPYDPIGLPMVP
UniProt O43516: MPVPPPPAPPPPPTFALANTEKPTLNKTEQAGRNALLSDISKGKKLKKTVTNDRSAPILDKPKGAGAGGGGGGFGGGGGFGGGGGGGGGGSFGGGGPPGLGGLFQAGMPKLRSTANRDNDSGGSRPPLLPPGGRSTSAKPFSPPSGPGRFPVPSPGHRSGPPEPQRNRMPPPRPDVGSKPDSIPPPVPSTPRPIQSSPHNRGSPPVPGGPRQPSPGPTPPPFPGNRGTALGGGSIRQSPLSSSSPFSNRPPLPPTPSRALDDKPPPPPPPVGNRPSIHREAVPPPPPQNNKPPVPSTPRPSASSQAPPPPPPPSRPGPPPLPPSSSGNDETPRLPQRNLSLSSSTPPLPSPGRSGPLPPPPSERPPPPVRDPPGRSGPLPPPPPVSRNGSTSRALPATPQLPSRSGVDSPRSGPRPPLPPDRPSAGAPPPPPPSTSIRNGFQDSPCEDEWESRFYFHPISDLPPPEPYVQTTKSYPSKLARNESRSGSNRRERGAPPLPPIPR
UniProt Q9H9H4: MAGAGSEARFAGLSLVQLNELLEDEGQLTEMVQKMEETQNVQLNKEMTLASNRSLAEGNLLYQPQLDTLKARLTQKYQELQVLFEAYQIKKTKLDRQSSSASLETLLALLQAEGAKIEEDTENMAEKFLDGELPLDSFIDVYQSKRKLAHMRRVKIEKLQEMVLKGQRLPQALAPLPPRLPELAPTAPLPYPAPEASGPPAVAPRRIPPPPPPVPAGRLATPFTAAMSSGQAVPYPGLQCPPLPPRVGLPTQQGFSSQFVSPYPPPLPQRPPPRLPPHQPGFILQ
UniProt A5D8V6: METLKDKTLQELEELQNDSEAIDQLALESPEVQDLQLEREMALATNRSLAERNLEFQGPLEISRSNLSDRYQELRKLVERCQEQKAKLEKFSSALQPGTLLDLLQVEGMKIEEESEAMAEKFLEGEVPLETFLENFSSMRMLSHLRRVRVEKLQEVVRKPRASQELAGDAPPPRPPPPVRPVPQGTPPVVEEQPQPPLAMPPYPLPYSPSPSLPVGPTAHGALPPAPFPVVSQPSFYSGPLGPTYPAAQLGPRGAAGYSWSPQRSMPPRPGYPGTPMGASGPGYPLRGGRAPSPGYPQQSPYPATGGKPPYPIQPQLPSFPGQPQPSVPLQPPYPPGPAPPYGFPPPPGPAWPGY
UniProt Q12768: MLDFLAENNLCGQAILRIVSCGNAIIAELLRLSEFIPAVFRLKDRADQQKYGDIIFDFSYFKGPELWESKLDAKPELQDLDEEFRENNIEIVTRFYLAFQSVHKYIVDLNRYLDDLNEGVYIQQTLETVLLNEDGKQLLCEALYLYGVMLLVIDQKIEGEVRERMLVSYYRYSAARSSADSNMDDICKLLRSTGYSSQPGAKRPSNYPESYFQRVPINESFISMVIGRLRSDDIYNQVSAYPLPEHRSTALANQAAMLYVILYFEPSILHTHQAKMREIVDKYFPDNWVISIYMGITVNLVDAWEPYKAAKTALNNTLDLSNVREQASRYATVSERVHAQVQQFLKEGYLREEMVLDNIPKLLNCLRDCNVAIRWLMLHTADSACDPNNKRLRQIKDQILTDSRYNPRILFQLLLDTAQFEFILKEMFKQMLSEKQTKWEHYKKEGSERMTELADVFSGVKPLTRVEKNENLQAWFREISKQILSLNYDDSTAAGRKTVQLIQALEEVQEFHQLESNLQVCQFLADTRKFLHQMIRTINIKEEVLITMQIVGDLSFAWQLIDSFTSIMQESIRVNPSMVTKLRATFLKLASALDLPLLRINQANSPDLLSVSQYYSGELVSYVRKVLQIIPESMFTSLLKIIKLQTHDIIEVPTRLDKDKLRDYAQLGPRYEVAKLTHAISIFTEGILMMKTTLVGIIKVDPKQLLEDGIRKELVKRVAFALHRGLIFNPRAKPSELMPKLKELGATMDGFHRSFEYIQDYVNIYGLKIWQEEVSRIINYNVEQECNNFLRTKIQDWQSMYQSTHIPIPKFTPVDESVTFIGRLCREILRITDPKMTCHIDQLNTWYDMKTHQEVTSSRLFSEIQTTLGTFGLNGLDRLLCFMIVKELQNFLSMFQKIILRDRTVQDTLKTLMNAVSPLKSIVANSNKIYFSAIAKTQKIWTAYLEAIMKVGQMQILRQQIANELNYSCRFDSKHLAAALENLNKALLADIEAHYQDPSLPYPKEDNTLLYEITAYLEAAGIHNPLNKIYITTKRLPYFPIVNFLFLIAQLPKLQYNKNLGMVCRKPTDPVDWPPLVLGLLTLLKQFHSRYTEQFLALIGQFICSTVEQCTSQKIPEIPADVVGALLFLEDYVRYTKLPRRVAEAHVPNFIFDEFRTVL
UniProt Q15007: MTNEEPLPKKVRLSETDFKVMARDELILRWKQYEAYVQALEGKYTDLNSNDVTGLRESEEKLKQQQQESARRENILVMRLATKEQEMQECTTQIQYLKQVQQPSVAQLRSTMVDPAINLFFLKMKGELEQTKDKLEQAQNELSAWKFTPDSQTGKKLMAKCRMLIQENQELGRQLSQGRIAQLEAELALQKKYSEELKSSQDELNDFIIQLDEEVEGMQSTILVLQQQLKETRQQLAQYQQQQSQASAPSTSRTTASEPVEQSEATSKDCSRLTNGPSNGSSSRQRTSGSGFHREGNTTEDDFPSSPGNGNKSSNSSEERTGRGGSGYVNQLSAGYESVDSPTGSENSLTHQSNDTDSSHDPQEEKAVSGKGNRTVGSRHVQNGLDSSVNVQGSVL
UniProt Q96AJ9: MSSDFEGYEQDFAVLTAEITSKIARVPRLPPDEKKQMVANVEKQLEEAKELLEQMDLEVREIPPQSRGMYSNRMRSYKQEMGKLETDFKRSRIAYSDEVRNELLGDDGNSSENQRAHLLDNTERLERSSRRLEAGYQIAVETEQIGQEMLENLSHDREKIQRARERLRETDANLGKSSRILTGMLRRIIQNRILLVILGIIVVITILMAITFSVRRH
UniProt Q96AX1: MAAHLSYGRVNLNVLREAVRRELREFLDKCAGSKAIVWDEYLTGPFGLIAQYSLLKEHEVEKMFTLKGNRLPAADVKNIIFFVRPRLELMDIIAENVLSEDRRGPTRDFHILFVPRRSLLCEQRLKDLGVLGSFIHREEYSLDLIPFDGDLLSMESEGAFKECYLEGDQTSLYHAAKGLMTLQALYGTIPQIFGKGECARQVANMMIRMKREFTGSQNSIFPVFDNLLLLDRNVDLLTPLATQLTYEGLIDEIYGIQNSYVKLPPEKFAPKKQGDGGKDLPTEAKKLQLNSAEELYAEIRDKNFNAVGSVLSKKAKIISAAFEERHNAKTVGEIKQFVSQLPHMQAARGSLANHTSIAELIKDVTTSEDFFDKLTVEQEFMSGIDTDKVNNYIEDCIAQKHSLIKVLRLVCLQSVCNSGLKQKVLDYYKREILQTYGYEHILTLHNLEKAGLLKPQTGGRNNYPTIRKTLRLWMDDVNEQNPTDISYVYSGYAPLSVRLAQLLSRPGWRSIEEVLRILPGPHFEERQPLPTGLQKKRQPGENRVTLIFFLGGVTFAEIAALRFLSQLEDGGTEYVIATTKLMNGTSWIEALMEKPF

Legend:
Assay in all cases: log2 fold change, soluble protein after heating vs DMSO (PISA); higher = thermal stabilisation; K562 lysate, 10 uM; active = over 0.2 and 3.5 SD of the protein, either way, in both replicates (recomputed)
lapatinib = compound: CS(=O)(=O)CCNCc1ccc(-c2ccc3ncnc(Nc4ccc(OCc5cccc(F)c5)c(Cl)c4)c3c2)o1 [lapatinib]
Outline: (§1)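 Pellets of K562 cells were dounce-homogenised in PBS pH 7.4 with 1 mM MgCl2, and the crude extract was held at 1 mg/mL protein for a 30 min treatment with 10 μM compound. Aliquots were heated for 3 min over 48°C-58°C and pooled before NP-40 was added to 0.5% at 4°C. The supernatant from 21,000xg for 90 min was quantified by TMTpro 16plex LC-MS/MS with channel sums equalised. Values are reported from duplicates as log-two fold change in thermal stability relative to solvent controls.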

pictilisib = compound: CS(=O)(=O)N1CCN(Cc2cc3nc(-c4cccc5[nH]ncc45)nc(N4CCOCC4)c3s2)CC1 [pictilisib]
Outline: as §1

crizotinib = compound: C[C@@H](Oc1cc(-c2cnn(C3CCNCC3)c2)cnc1N)c1c(Cl)ccc(F)c1Cl [crizotinib]
Outline: as §1

[1] = compound: C[C@H](C1=CC=C(C=C1)C(=O)NC2=C3C=CNC3=NC=C2)N
Outline: as §1

duvelisib = compound: C[C@H](Nc1ncnc2nc[nH]c12)c1cc2cccc(Cl)c2c(=O)n1-c1ccccc1 [duvelisib]
Outline: as §1

gandotinib = compound: Cc1cc(Nc2cc(CN3CCOCC3)c3nc(C)c(Cc4ccc(Cl)cc4F)n3n2)n[nH]1 [gandotinib]
Outline: as §1

tozasertib = compound: Cc1cc(Nc2cc(N3CCN(C)CC3)nc(Sc3ccc(NC(=O)C4CC4)cc3)n2)n[nH]1 [tozasertib]
Outline: as §1

doramapimod = compound: Cc1ccc(-n2nc(C(C)(C)C)cc2NC(=O)Nc2ccc(OCCN3CCOCC3)c3ccccc23)cc1 [doramapimod]
Outline: as §1

bafetinib = compound: Cc1ccc(NC(=O)c2ccc(CN3CC[C@H](N(C)C)C3)c(C(F)(F)F)c2)cc1Nc1nccc(-c2cncnc2)n1 [bafetinib]
Outline: as §1

[2] = compound: Cc1cccc(CC(=O)N2CCc3c2ccc(-c2cn(C)c4ncnc(N)c24)c3F)n1
Outline: as §1

Measured: log2 fold change

VKORC1 (UniProt Q9BQB6)
inactive: lapatinib -0.111 | pictilisib -0.023 | crizotinib -0.011 | [1] -0.087 | duvelisib 0.082 | gandotinib -0.203 | tozasertib 0.045 | doramapimod -0.017 | bafetinib -0.038 | [2] 0.006

VWDE (UniProt Q8N2E2)
inactive: lapatinib -0.026 | pictilisib -0.032 | crizotinib -0.047 | [1] 0.007 | duvelisib 0.054 | gandotinib 0.005 | tozasertib -0.026 | doramapimod 0.016 | bafetinib 0.043 | [2] 0.029

WDHD1 (UniProt O75717)
inactive: lapatinib -0.017 | pictilisib -0.025 | crizotinib -0.035 | [1] 0.077 | duvelisib 0.007 | gandotinib -0.082 | tozasertib -0.043 | doramapimod 0.011 | bafetinib 0.023 | [2] -0.037

WBP2 (UniProt Q969T9)
inactive: lapatinib 0.017 | pictilisib 0.03 | crizotinib 0.071 | [1] 0.121 | duvelisib 0.02 | gandotinib -0.047 | tozasertib 0.008 | doramapimod -0.023 | bafetinib 0.055 | [2] -0.113

WIPF3 (UniProt A6NGB9)
inactive: lapatinib 0.008 | pictilisib 0.004 | crizotinib 0.019 | [1] -0.071 | duvelisib -0.048 | gandotinib 0.054 | tozasertib -0.019 | doramapimod -0.005 | bafetinib 0.015 | [2] 0.049

WDR6 (UniProt Q9NNW5)
inactive: lapatinib -0.023 | pictilisib -0.03 | crizotinib -0.049 | [1] -0.05 | duvelisib -0.005 | gandotinib -0.007 | tozasertib -0.013 | doramapimod -0.007 | bafetinib -0.022 | [2] 0.024

WDR18 (UniProt Q9BV38)
inactive: lapatinib -0.018 | pictilisib -0.018 | crizotinib -0.015 | [1] -0.046 | duvelisib -0.054 | gandotinib 0.083 | tozasertib 0.024 | doramapimod 0.041 | bafetinib -0.047 | [2] 0.012

VPS53 isoform 4 (UniProt Q5VIR6)
inactive: lapatinib -0.015 | pictilisib -0.005 | crizotinib -0.057 | [1] -0.001 | duvelisib 0.018 | gandotinib -0.097 | tozasertib 0.001 | doramapimod 0.016 | bafetinib 0.003 | [2] 0.003

WARS (UniProt P23381)
inactive: lapatinib 0.012 | pictilisib 0.02 | crizotinib 0.02 | [1] 0.122 | duvelisib -0.006 | gandotinib -0.025 | tozasertib -0.051 | doramapimod -0.065 | bafetinib 0.287 | [2] -0.111

VPS45 (UniProt Q9NRW7)
inactive: lapatinib -0.002 | pictilisib -0.043 | crizotinib -0.029 | [1] -0.022 | duvelisib -0.025 | gandotinib -0.042 | tozasertib -0.021 | doramapimod -0.013 | bafetinib -0.039 | [2] -0.026

VPS35 (UniProt Q96QK1)
inactive: lapatinib -0.004 | pictilisib -0.017 | crizotinib -0.038 | [1] 0.018 | duvelisib -0.023 | gandotinib -0.03 | tozasertib -0.02 | doramapimod 0.027 | bafetinib 0.019 | [2] -0.006

VRK3 (UniProt Q8IV63)
inactive: lapatinib 0.008 | pictilisib -0.029 | crizotinib -0.055 | [1] -0.007 | duvelisib 0.029 | gandotinib -0.012 | tozasertib 0.054 | doramapimod 0.008 | bafetinib 0.082 | [2] -0.037

WDR70 (UniProt Q9NW82)
inactive: lapatinib 0.021 | pictilisib 0.004 | crizotinib 0.008 | [1] 0.032 | duvelisib 0.003 | gandotinib 0.052 | tozasertib -0.01 | doramapimod 0.001 | bafetinib -0.005 | [2] -0.067

WIPF1 isoform 3 (UniProt O43516)
inactive: lapatinib -0.032 | pictilisib -0.024 | crizotinib -0.007 | [1] -0.072 | duvelisib -0.168 | gandotinib 0.044 | tozasertib -0.001 | doramapimod -0.005 | bafetinib -0.098 | [2] 0.116

VPS37B (UniProt Q9H9H4)
inactive: lapatinib 0.016 | pictilisib -0.053 | crizotinib 0.017 | [1] 0.034 | duvelisib -0.009 | gandotinib -0.028 | tozasertib 0.021 | doramapimod 0.006 | bafetinib -0.034 | [2] -0.04

VPS37C (UniProt A5D8V6)
inactive: lapatinib 0.022 | pictilisib -0.04 | crizotinib 0.006 | [1] 0.014 | duvelisib 0.004 | gandotinib -0.113 | tozasertib 0.098 | doramapimod -0.026 | bafetinib -0.073 | [2] 0.021

WASHC5 (UniProt Q12768)
inactive: lapatinib 0.001 | pictilisib -0.038 | crizotinib -0.025 | [1] -0.043 | duvelisib -0.019 | gandotinib -0.001 | tozasertib -0.003 | doramapimod 0.043 | bafetinib -0.067 | [2] 0.052

WDR73 (UniProt Q6P4I2)
inactive: lapatinib -0.027 | pictilisib -0.043 | crizotinib 0.032 | [1] -0.011 | duvelisib -0.017 | gandotinib -0.011 | tozasertib 0.011 | doramapimod 0.02 | bafetinib -0.024 | [2] -0.015

WDR37 isoform 2 (UniProt Q9Y2I8)
inactive: lapatinib -0.001 | pictilisib -0.014 | crizotinib -0.002 | [1] 0.088 | duvelisib 0.02 | gandotinib -0.091 | tozasertib 0.005 | doramapimod 0.025 | bafetinib -0.062 | [2] 0.019

WRAP53 (UniProt Q9BUR4)
inactive: lapatinib 0.028 | pictilisib -0.065 | crizotinib -0.032 | [1] -0.022 | duvelisib 0.022 | gandotinib 0.025 | tozasertib 0.052 | doramapimod 0.007 | bafetinib -0.027 | [2] 0.089

WDR46 (UniProt O15213)
inactive: lapatinib -0.027 | pictilisib 0.034 | crizotinib -0.02 | [1] 0.02 | duvelisib 0.048 | gandotinib -0.029 | tozasertib 0.061 | doramapimod -0.024 | bafetinib 0.007 | [2] -0.056

VPS4A (UniProt Q9UN37)
inactive: lapatinib 0.003 | pictilisib -0.034 | crizotinib -0.034 | [1] -0.042 | duvelisib -0.012 | gandotinib -0.066 | tozasertib 0.007 | doramapimod 0.038 | bafetinib 0.004 | [2] 0.056

WDR41 (UniProt Q9HAD4)
active: doramapimod 0.241
inactive: lapatinib 0.013 | pictilisib 0.099 | crizotinib 0.022 | [1] -0.037 | duvelisib -0.026 | gandotinib 0.149 | tozasertib -0.069 | bafetinib -0.065 | [2] 0.126

WDR59 (UniProt Q6PJI9)
inactive: lapatinib 0.01 | pictilisib -0.021 | crizotinib -0.021 | [1] -0.043 | duvelisib 0.024 | gandotinib -0.05 | tozasertib -0.041 | doramapimod 0 | bafetinib 0.012 | [2] 0.002

WTAP (UniProt Q15007)
inactive: lapatinib 0.008 | pictilisib -0.039 | crizotinib -0.002 | [1] -0.025 | duvelisib 0.053 | gandotinib -0.007 | tozasertib 0.032 | doramapimod -0.004 | bafetinib -0.043 | [2] 0.016

Reprinted from the results shown (two entries):
VPS4A (UniProt Q9UN37)
inactive: lapatinib 0.003 | pictilisib -0.034 | crizotinib -0.034 | [1] -0.042 | duvelisib -0.012 | gandotinib -0.066 | tozasertib 0.007 | doramapimod 0.038 | bafetinib 0.004 | [2] 0.056

WDR41 (UniProt Q9HAD4)
active: doramapimod 0.241
inactive: lapatinib 0.013 | pictilisib 0.099 | crizotinib 0.022 | [1] -0.037 | duvelisib -0.026 | gandotinib 0.149 | tozasertib -0.069 | bafetinib -0.065 | [2] 0.126

(continued)

WDR48 (UniProt Q8TAF3)
inactive: lapatinib 0.046 | pictilisib 0.023 | crizotinib 0.019 | [1] -0.096 | duvelisib 0.003 | gandotinib 0.059 | tozasertib 0 | doramapimod 0.009 | bafetinib 0.01 | [2] 0.037

VTI1A (UniProt Q96AJ9)
inactive: lapatinib 0.141 | pictilisib 0.003 | crizotinib -0.04 | [1] 0.029 | duvelisib -0.027 | gandotinib -0.06 | tozasertib -0.005 | doramapimod 0 | bafetinib -0.011 | [2] -0.042

VPS33A (UniProt Q96AX1)
inactive: lapatinib 0 | pictilisib -0.005 | crizotinib -0.025 | [1] -0.03 | duvelisib 0.039 | gandotinib -0.043 | tozasertib 0.01 | doramapimod 0 | bafetinib 0.014 | [2] 0.036

WRNIP1 (UniProt Q96S55)
inactive: lapatinib -0.021 | pictilisib -0.043 | crizotinib 0 | [1] 0.054 | duvelisib 0.012 | gandotinib -0.047 | tozasertib 0.022 | doramapimod 0.001 | bafetinib -0.043 | [2] 0.045
